# The entries are a selection whose mix differs from that of the whole data set. At the low end of the ranking the order means little.
# Molecular target: SPI1 (UniProt P17947)
# Assay: DAPPL (digital affinity profiling via proximity ligation, sequencing)
# Conditions: 10 mM Tris-HCl pH 7.5, 50 mM NaCl, 1 mM DTT, 4% glycerol, room temperature, 30 min; GST-TFs on glutathione beads, 16-mer random dsDNA library, 0.1% …; high values mean tight binding; double strand, one strand shown; scale: fold enrichment (6-mer frequency, TF over GST control)
row,Sequence,binding signal
1,ATCGGC,0.613
2,GAGGAG,0.211
3,GGCGGC,0.542
4,CAGTAC,0.826
5,AGTTCA,1.01
6,GGCGTG,0.347
7,GGGCAC,0.851
8,CACAGA,0.815
9,GTCGTC,0.722
10,GGGGTA,0.734
11,AGAGCG,0.437
12,GACAAA,0.878
13,ACGGGG,0.619
14,CGCATT,0.929
15,AGCGGG,0.495
16,GTATAG,0.977
17,GAGTCC,0.346
18,ATGTCG,0.666
19,AGTGAG,0.337
20,ACGTGC,0.752

# For convenience, part of the list above:
row,Sequence,binding signal
9,GTCGTC,0.722
10,GGGGTA,0.734

# Next part

row,Sequence,binding signal
1,CGGTCC,0.911
2,AGCGGA,1.26
3,GGTGCG,0.564
4,GCAGTT,0.823
5,GAGTCT,0.362
6,GCCGGG,0.378
7,GAGGCC,0.407
8,GCTGAG,0.674
9,GTCGAA,0.623
10,GGAATC,0.699
11,GAGTTT,0.565
12,CAAGTC,0.803
13,CGGAAT,0.863
14,GATAGA,0.834
15,GAGATC,0.429
16,CAGAGG,0.578
17,TGAGAG,0.547
18,GGATGA,0.99
19,AGGCGG,0.252
20,GTGAAG,0.675

# Source: paper PMC7862700
